# Laboratory results published in PubChem BioAssay AID493014 (National Center for Advancing Translational Sciences (NCATS), 2011).
# This is one part of the list. The main result of the screen is listed elsewhere. These columns were measured beside it and carry no call. Most of these compounds were active or inconclusive in the main read-out, so they are no random draw. Potencies come from curve fits of mixed quality, noted in brackets.
# Experiment: qHTS Assay to Find Inhibitors of Chronic Active B-Cell Receptor Signaling
# Conditions: ABC-DLBCL IkBa-CBG/CBR reporter, luminescence ratio (green luciferase fused to IkBa over red control in TMD8 lymphoma cells), 4 h
# Method in brief: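 Concentration-response series (up to 46 uM) were applied to TMD8 dual-reporter cells for 4 h at 37C with doxycycline. Green/red ratio, after filter-overlap correction, defined %Activity; red signal alone was normalised to basal cells and zero luminescence.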
# [1] = measured here: CBR red luminescence, cell number
# [2] = measured here: IkBa-CBG green luminescence
SMILES,AC50 [1],AC50 [2]
Cc1c2c(nc3c(C(=O)NC4CC4)cnn13)CCCC2,"10 µM [rising, partial curve]",–
CCCCNC1=CC(=O)C(=O)c2ccccc21,"8.91 µM [falling, partial curve]",–
CCN(CC(=O)NCc1ccc(F)cc1)Cc1nc2cc(Cl)ccc2c(=O)[nH]1,"0.411 µM [falling, partial curve, poor fit]",–
CCOC(=O)C1=C(CN2CCCCC2)NC(=O)NC1c1cc(C)ccc1C (stereo unspecified),"0.112 µM [falling, full curve, poor fit]",–
Cn1cnnc1SCC(=O)c1ccc2c(c1)NC(=O)CO2,"18.4 µM [rising, single point]",–
O=C(Cn1cnc2scc(-c3ccc(Cl)cc3)c2c1=O)N1CCOCC1,"5.01 µM [rising, partial curve, poor fit]",–
CC(=O)NCCc1nc2cc(NC(=O)Nc3ccccc3)ccc2n1C,"10 µM [falling, partial curve, poor fit]",–
Nc1ccccc1NC1=CC(=O)CC(c2ccco2)C1 (stereo unspecified),"29.1 µM [falling, single point]",–
CCOC(=O)CN(C)S(=O)(=O)c1ccc(-c2cc(C(=O)OC)sc2C(F)(F)F)cc1,"3.55 µM [rising, partial curve, poor fit]",–
COCc1nnc(NC(=O)CCCOc2ccccc2)s1,"29.1 µM [rising, single point]",–
O=C(c1ccccc1)N1CCN(c2ccc([N+](=O)[O-])cc2-n2cccc2)CC1,"7.08 µM [rising, full curve, poor fit]",–
COc1ccc2c(c1)[C@H]1[C@H](CO2)[C@H](c2ccccc2)[C@]2(C)C(=O)Nc3cc(Cl)ccc3C(=O)N12,"4.61 µM [falling, full curve]",–
Cc1ccc(C2=CC(c3ccccc3F)n3c(nc4ccccc43)N2)cc1C (stereo unspecified),"3.55 µM [falling, partial curve]",–
Cc1ccc2nc3sc(C(=O)NCc4ccco4)c(N)c3cc2c1,"1.46 µM [falling, partial curve, poor fit]",–
CC(=O)c1cccc(OCC(=O)N(C)CC(=O)NCc2ccco2)c1,"5.8 µM [rising, partial curve, poor fit]",–
COc1ccc(/C=N/NC(=O)c2cccc(COCC(F)(F)C(F)F)c2)cc1,"9.2 µM [falling, partial curve]",–
Nc1nc2cc3ccccc3cc2[nH]c1=O,"0.501 µM [falling, full curve]",–
COc1ccc(-c2nc(NC(C)=O)sc2-c2ccccc2)cc1,"11.2 µM [falling, partial curve, poor fit]",–
COc1ccc(/C=C/C(=O)N/C(=C\c2ccco2)C(=O)NCCc2nc3ccccc3[nH]2)cc1,"29.1 µM [falling, single point]",–
CCOc1ccc(N(C)S(=O)(=O)c2ccc3[nH]cc(C(=O)NCC4CCCO4)c(=O)c3c2)cc1 (stereo unspecified),"2.91 µM [rising, full curve, poor fit]",–
Oc1ccc(Br)cc1CNc1cnc2ccccc2c1,"35.5 µM [rising, single point]",–

# Look-ups from the entries so far:
# For AC50 [1], `CCCCNC1=CC(=O)C(=O)c2ccccc21` has the entry 8.91 µM [falling, partial curve]
# For AC50 [1], `CCN(CC(=O)NCc1ccc(F)cc1)Cc1nc2cc(Cl)ccc2c(=O)[nH]1` has the entry 0.411 µM [falling, partial curve, poor fit]
# For AC50 [1], `O=C(c1ccccc1)N1CCN(c2ccc([N+](=O)[O-])cc2-n2cccc2)CC1` has the entry 7.08 µM [rising, full curve, poor fit]

# (cont.)

SMILES,AC50 [1],AC50 [2]
COC(=O)c1ccc(CSc2n[nH]c(=S)s2)o1,"25.9 µM [rising, partial curve, poor fit]",–
CCOc1cc(NC(=S)NCCCN2CCOCC2)c(OCC)cc1NC(=O)C1CCCCC1,"12.6 µM [rising, single point]",–
CCOC(=O)C(NCc1ccco1)(NC(=O)c1ccc(OC)cc1)C(F)(F)F (stereo unspecified),"15.8 µM [rising, partial curve, poor fit]",–
CCCCOc1ccc(OCCSc2nc3ccccc3n2CC(=O)O)cc1,"3.55 µM [falling, full curve, poor fit]","0.891 µM [rising, full curve, poor fit]"
COc1ccccc1N(C)S(=O)(=O)c1ccc(C(=O)Nc2ccc(N3CCOCC3)cc2)cc1,"4.47 µM [rising, single point]",–
CCCCOc1ncnc2c1[nH]c1ccc(OC)cc12,"0.1 µM [rising, full curve, poor fit]",–
COc1ccc(-c2nc3n(c2C)Cc2ccccc2-3)cc1,"1 µM [rising, full curve, poor fit]",–
N=c1c2c(ncn1Cc1ccco1)Oc1c(ccc3ccccc13)C2c1ccccc1 (stereo unspecified),"6.51 µM [falling, full curve]","5.17 µM [rising, full curve, poor fit]"
COc1ccc(C(=O)/C=C/c2cccnc2)c(OC)c1,"7.94 µM [falling, partial curve]",–
CCOC(=O)CSc1nc(-c2ccc3c(c2)OCO3)ccc1C#N,"35.5 µM [rising, single point]",–
COCCOC(=O)c1c(C)oc2ccc(OCc3ccccc3)cc12,"1.64 µM [rising, full curve, poor fit]",–
C[n+]1nc(Nc2cccc3ccccc23)sc1-c1ccc(C(=O)O)cc1,"8.91 µM [falling, partial curve]",–
COc1cc2oc(=O)cc(-c3ccc(-c4ccc(C)cc4)cc3)c2c(OC)c1OC,"9.2 µM [rising, partial curve, poor fit]",–
NC(=O)c1ccccc1NS(=O)(=O)c1ccc(F)cc1,"17.8 µM [rising, single point]",–
CC(=O)c1ccc(C(=O)N(Cc2cccnc2)c2nc3c(C)c(C)ccc3s2)cc1,"3.98 µM [falling, single point]",–
C=CCN(CC=C)C(=S)NC(=O)c1ccc(C)c(Br)c1,"25.9 µM [rising, single point]","11.6 µM [falling, partial curve, poor fit]"
Cc1cc(C(=O)OCC(=O)NC2CCS(=O)(=O)C2)c(C)n1-c1ccccc1 (stereo unspecified),"32.6 µM [falling, single point]",–
O=C(Nc1ccc(C(=O)N2CCCC2)cc1)c1ccccc1Br,"35.5 µM [falling, single point]",–
COCc1[nH]nc2c1C(c1sccc1C)C(C#N)=C(N)O2 (stereo unspecified),"3.55 µM [falling, partial curve]",–
O=C(N/N=C/c1cn(-c2ccccc2)nc1-c1cccs1)c1ccncc1,"0.92 µM [rising, full curve, poor fit]",–
c1ccc2c(c1)CC/C2=N/Nc1nc2ccccc2[nH]1,"10 µM [falling, partial curve, poor fit]",–

SMILES,AC50 [1],AC50 [2]
O=C(/C=C\Nc1ccc2c(c1)OCO2)c1ccccn1,"1.78 µM [falling, full curve]",–
COc1cccc(/C=N/NC(=O)CNC(=O)C(c2ccccc2)c2ccccc2)c1O,"10 µM [falling, partial curve, poor fit]",–
Cc1c(CC(=O)O)c(=O)oc2cc3occ(-c4ccc(F)cc4)c3cc12,"0.112 µM [rising, full curve, poor fit]",–
CCC(CC)C(=O)NCCCN1CCOCC1,"2.59 µM [rising, partial curve, poor fit]",–
CC(C)(C)OC(=O)NCCCC[C@H](NC(=O)c1nc[nH]c1C(=O)N1CCc2ccccc2C1)C(=O)OC(C)(C)C,"0.794 µM [falling, partial curve, poor fit]",–
Cc1ccc2oc(=O)n(CCCOc3ccccc3)c2c1,"17.8 µM [rising, partial curve, poor fit]",–
CSc1nc2ccc(NS(=O)(=O)c3c(Cl)cccc3Cl)cc2s1,"4.61 µM [falling, full curve]",–
CC(=O)Nc1ccc(N/C=C/C(=O)c2ccc(C)cc2)cc1,"4.47 µM [rising, partial curve, poor fit]",–
COC(=O)c1ccc(NC(=O)Nc2ccccc2F)cc1,"12.6 µM [falling, partial curve, poor fit]",–
Cn1c(/C=N/Nc2nc3ccccc3[nH]2)nc2ccccc21,"11.2 µM [falling, partial curve]",–
NS(=O)(=O)c1ccc(NC2=CC(c3ccc([N+](=O)[O-])cc3)N(c3ccc(S(N)(=O)=O)cc3)C2=O)cc1 (stereo unspecified),"35.5 µM [falling, single point]",–
Fc1cccc2sc(Nc3nc4cc5c(cc4s3)OCO5)nc12,"0.116 µM [rising, full curve, poor fit]",–
CCc1ccccc1OCC(=O)N(CC)CC(=O)NCc1ccc(F)cc1,"18.4 µM [falling, partial curve, poor fit]",–
N/C(=N\c1nc(C(F)(F)F)cc(=O)[nH]1)Nc1ccc(Cl)cc1,"6.51 µM [rising, single point]",–
Cn1cc([N+](=O)[O-])c(C(=O)Nc2cnn(Cc3ccc(F)cc3)c2)n1,"3.26 µM [falling, partial curve, poor fit]",–
O=C(Nc1cccc(Cl)c1N1CCOCC1)c1cccs1,"8.91 µM [falling, partial curve, poor fit]",–
CCc1cc(C(=O)NCCN(C)C)cs1,"0.326 µM [rising, full curve, poor fit]",–
N#Cc1cc2c(nc1SCC(N)=O)CCCCC2,"20.6 µM [falling, partial curve]",–
O=C(CCS(=O)(=O)c1ccccc1)Nc1ccc(-c2nc3ccccc3s2)c(O)c1,"2.06 µM [falling, full curve]",–
CCOc1ccc(NC(=O)c2ccc(NC(=S)NC3CCCCC3)cc2)cc1,"7.08 µM [falling, partial curve]",–
Cc1cc(=O)oc2c(C)c(OCC(=O)N3CCN(C(=O)C4COc5ccccc5O4)CC3)ccc12 (stereo unspecified),"31.6 µM [falling, single point]",–

# Two entries from above, with bars between the fields.
SMILES | AC50 [1] | AC50 [2]
CC(=O)NCCc1nc2cc(NC(=O)Nc3ccccc3)ccc2n1C | 10 µM [falling, partial curve, poor fit] | –
O=C(Nc1ccc(C(=O)N2CCCC2)cc1)c1ccccc1Br | 35.5 µM [falling, single point] | –
